Record: PubChem BioAssay AID652243 (Drosophila RNAi Screening Center, 2013)
In all, the deposit lists about 24,000 reagents; below is an unselected part of those that have a named target and a result. In the full data, 246 (1%) got an active call. 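Plates not normalised; calls are printed but the firefly/Renilla ratio behind them is not deposited; fold cut for lowering reported inconsistently.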 Raw values vary from plate to plate and are shown uncorrected. Reagents against one gene are numbered here. Not stated in the record: the amount of reagent.

Assay: 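Fly regulators of androgen-dependent reporter output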 (primary screen)
Cell system: Drosophila S2R+ cells
Reagents: long dsRNA against Drosophila genes
Time to read-out: 72 h (48 h, then 24 h hormone)
Conditions: synthetic androgen R1881 at 10 nM for 24 h
Measurement: 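Per-well raw luminescence of the androgen-driven firefly reporter and of the Renilla control, two replicates each, without normalisation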
Direction: firefly reporter light: higher = more light from androgen-responsive reporter; Renilla control light: higher = more constitutive control signal (cell number, transfection)
Call rule: 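Hit when the log firefly-to-Renilla ratio dropped or increased by a fixed fold versus the mean of GFP or LacZ controls across duplicate plates; lowering cut given as 1.5 and as 3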
Meaning of the calls: active = hit: reporter lowered or raised; inactive = no hit

With knock-down of CG10953 the results were firefly reporter light, replicate 1 = 3.06e5; firefly reporter light, replicate 2 = 5.77e5; Renilla control light, replicate 1 = 1.03e6; Renilla control light, replicate 2 = 1.55e6; inactive. After knock-down of CG13285, the record shows firefly reporter light, replicate 1 = 3.04e5; firefly reporter light, replicate 2 = 1.58e5; Renilla control light, replicate 1 = 2.08e6; Renilla control light, replicate 2 = 1.84e6; inactive. Depletion of CG2765 came out at: firefly reporter light, replicate 1 = 9.21e5; firefly reporter light, replicate 2 = 1.09e6; Renilla control light, replicate 1 = 1.26e6; Renilla control light, replicate 2 = 1.81e6; inactive. milt #1 scored firefly reporter light, replicate 1 = 1.21e5; firefly reporter light, replicate 2 = 1.20e5; Renilla control light, replicate 1 = 5.07e5; Renilla control light, replicate 2 = 4.27e5; inactive. Against milt #2, the values are firefly reporter light, replicate 1 = 1.57e5; firefly reporter light, replicate 2 = 1.67e5; Renilla control light, replicate 1 = 5.94e5; Renilla control light, replicate 2 = 6.05e5; inactive. Knock-down of milt #3 resulted in: firefly reporter light, replicate 1 = 5.77e5; firefly reporter light, replicate 2 = 6.17e5; Renilla control light, replicate 1 = 2.06e6; Renilla control light, replicate 2 = 1.89e6; inactive.

After knock-down of milt #4, the screen gave firefly reporter light, replicate 1 = 8.81e5; firefly reporter light, replicate 2 = 4.87e5; Renilla control light, replicate 1 = 2.10e6; Renilla control light, replicate 2 = 1.29e6; inactive. Knock-down of Ufl1 gave: firefly reporter light, replicate 1 = 70816; firefly reporter light, replicate 2 = 1.05e5; Renilla control light, replicate 1 = 6.19e5; Renilla control light, replicate 2 = 5.70e5; inactive. Against Sod3 #1, the entry reads firefly reporter light, replicate 1 = 6.97e5; firefly reporter light, replicate 2 = 7.64e5; Renilla control light, replicate 1 = 2.68e6; Renilla control light, replicate 2 = 2.11e6; inactive. Silencing of Sod3 #2 resulted in: firefly reporter light, replicate 1 = 2.73e5; firefly reporter light, replicate 2 = 2.60e5; Renilla control light, replicate 1 = 6.69e5; Renilla control light, replicate 2 = 5.13e5; inactive. With knock-down of Prosbeta4R2 #1, the record shows firefly reporter light, replicate 1 = 7.34e5; firefly reporter light, replicate 2 = 6.82e5; Renilla control light, replicate 1 = 2.50e6; Renilla control light, replicate 2 = 1.72e6; inactive. Knock-down of Prosbeta4R2 #2 resulted in: firefly reporter light, replicate 1 = 6.03e5; firefly reporter light, replicate 2 = 8.83e5; Renilla control light, replicate 1 = 1.13e6; Renilla control light, replicate 2 = 1.67e6; inactive.

Only “Renilla control light, replicate 1”, for 2 of the entries above:
Ufl1	6.19e5
Sod3 #1	2.68e6
